{"source": "patent US7582483B2", "about": "“Method of detecting viable cells” (Fuji Electric Holdings Co., Ltd., priority 2004, dated 2009)", "assay_type_in_all_cases": "cell-based", "key": {"microbes in fresh milk": {"system": "microbes in fresh milk", "experiment": "detection of viable microbes in fresh milk by CFDA staining followed by Phenol Red quenching", "conditions": "CFDA 300 μg/mL, Phenol Red 1 mg/mL, pH 8.6, compared with CFDA alone"}, "Escherichia coli [1]": {"system": "Escherichia coli", "experiment": "detection of viable microbes in solid food (namul of spinach) with added Escherichia coli, CFDA and Phenol Red solutions at various pH", "conditions": "pH 6 to 8.6 of the CFDA solution and the Phenol Red solution", "procedure": "In a second example, detection of live microbes was conducted using solid food (namul of spinach) to which Escherichia coli were added. The treatment to extract the microbes from the solid food into liquid was carried out referring to “A Guide to Food Sanitation Test, Volume on Microorganisms” (in Japanese; published by Japan Food Hygiene Association, 1990). Ten grams of the solid food (namul of spinach) to which Escherichia coli (about 10^7) was added was aliquoted into a stomacher bag. (The stomacher bag is made of flexible plastic film such as polyethylene and sterilized by radiation. There is a compartment inside the stomacher bag created by a partition of non-woven fabric or a plastic film with a pore size of about 0.28 mm diameter, and a liquid component can be extracted excluding relatively large solid bodies from the compartment. The aliquot of the solid food is supplied with 90 mL of sterile phosphate buffer saline and crushed and dispersed using a stomacher. A stomacher is an apparatus for extracting live microbes contained in food to liquid. In the stomacher, the stomacher bag containing food is placed between a fixed plate and a paddle and the food is crushed and dispersed by squeezing the bag containing food while moving the paddle back and forth. […] Using the liquid, viable microbes were detected in a procedure similar to that in Example 1. […]"}, "Escherichia coli [2]": {"system": "Escherichia coli", "experiment": "staining of Escherichia coli with Phenol Red alone at pH 7, fluorescence microscope", "conditions": "Phenol Red solution alone at pH 7; compared with no staining"}}, "note": "At least one compound was matched to its structure with a doubt left."}
{"smiles": "O=S1(=O)OC(c2ccc(O)cc2)(c2ccc(O)cc2)c2ccccc21", "note": "[Phenol Red]", "values": [{"measurement": "detection of bright spots (viable cells) after staining with CFDA and subsequent staining with Phenol Red", "setting": "microbes in fresh milk", "value": "bright spots indicating viable cells are clearly detected"}, {"measurement": "quenching of inclusions and detection of viable microbes", "setting": "Escherichia coli [1]", "value": "the inclusions were quenched and the bright spots indicating viable microbes were clearly detected"}, {"measurement": "penetration of the quenching dye into the microbes", "setting": "Escherichia coli [2]", "value": "penetration of the Phenol Red into the microbes"}]}
